A short description of the test: qHTS Assay for Lipid Storage Modulators in Drosophila S3 Cells.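 For cell number change: cells counted by Cell Tracker Red CMTPX staining in the red channel.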 The settings on record: BODIPY lipid droplet fluorescence, 18-24 h; for cell number change: measured here: cell count max response, cells fed with added oleic acid. The gist of the method: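 Drosophila S3 cells got compounds at several concentrations plus oleic acid (400 uM solution). Laser-scanning cytometry with 488 nm excitation read lipid droplets at 500-530 nm and cells at 575-640 nm. Percent activity was relative to 20 uM Triacsin C.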
On the technique in general: qHTS replaces the single test concentration by a dilution series.

[1] abbreviates: measured here: cell number channel AC50, cells fed with added oleic acid.
[2] abbreviates: measured here: lipid fluorescence (Fed channel) AC50, cells fed with added oleic acid.

The term AC50 denotes the concentration giving half of the maximal activity seen. A low value points to greater potency.

This is one part of the list. The main result of the screen is listed elsewhere. These columns were measured beside it and carry no call. The list favours compounds with an active or inconclusive main result. Potencies come from curve fits of mixed quality, noted in brackets.

As to `NC(=O)C1=C[C@@H](c2coc3ccccc3c2=O)C[C@@H](OCCCCO)O1`, the cell number change came to 35%. Also, the half-maximal activity concentration (AC50) under setting [1] was 0.103 µM [rising, full curve, poor fit].

Consider `CCOc1cc(/C=N/NC(=O)CN2CCCCC2)ccc1OCc1ccccc1`, for which the cell number change was -9.57%. Also, the AC50 under setting [2] is 0.082 µM [falling, full curve, poor fit]. In the case of `Cc1csc(SCC(=O)Nc2nnc(C)s2)n1`, the cell number change was 10.9%. For the same compound, under setting [2], the AC50 is 6.51 µM [rising, single point].

Regarding `CC[C@H](C)[C@H](NC(N)=O)C(=O)Nc1ccc(OC)c(Cl)c1`, the cell number change amounted to 35.2%. The AC50 under setting [1] is 0.517 µM [rising, full curve, poor fit]. Turning to `CCCN(CCC)C(=O)Cc1coc2ccc3ccccc3c12`, the cell number change was found to be 38.1%. For the same compound, the AC50 under setting [1] was 8.2 µM [rising, partial curve, poor fit].

In the case of `Cc1cc(NC(=O)CSCc2nc(-c3cccc(F)c3)oc2C)no1`, the cell number change amounted to 19.7%. Moreover, the AC50 under setting [1] was 3.66 µM [falling, partial curve]. The AC50 under setting [2] is 2.06 µM [falling, partial curve]. Turning to `Cc1c(-c2ccnc3cc(C(=O)O)nn23)cnn1C`, the cell number change worked out at 24.3%. Further, the AC50 under setting [2] is 29.1 µM [rising, single point]. On to `COc1cccc(/C=N/NC(=O)c2[nH]c(C)c(C(=O)N/N=C/c3cccc(OC)c3O)c2C)c1O`, for which the cell number change was -30.2%. For the same compound, the concentration at half-maximal activity (AC50) under setting [1] is 29.1 µM [falling, single point]. Further, under setting [2], the AC50 was 32.6 µM [falling, single point]. With `O=S(=O)(NC1CCN(Cc2ccccc2)CC1)c1cccc2cccnc12`, the cell number change was 138%. The AC50 under setting [1] was 7.31 µM [falling, partial curve, poor fit]. Regarding `COc1ccccc1C(=O)Nc1ccc(S(=O)(=O)N2CCCCC2)cc1`, the cell number change stood at 18.4%. Same read-out and setting: the result for `CN(C)CCNC(=O)C1CCCNC1=O` (stereo not given) reads -17.9%. With `CC(C)NS(=O)(=O)c1ccc(CCC(=O)N2CCCCC2)cc1`, the cell number change was -38.8%. In addition, the AC50 under setting [1] was 32.6 µM [falling, single point]. As to `Cc1ccccc1Cn1nc(C)c(NC(=O)/C=C/c2cnn(C)c2C)c1C`, the cell number change is 38.1%. For the same compound, the AC50 under setting [1] was 7.31 µM [rising, partial curve]. Also, the AC50 under setting [2] was 0.517 µM [rising, full curve, poor fit]. For `O=C(NCC(c1ccco1)N1CCc2ccccc2C1)c1ccc(Br)cc1` (stereo not given), the cell number change turned out to be 34.5%. For the same compound, the AC50 under setting [1] is 29.1 µM [rising, single point]. Also, under setting [2], the AC50 was 29.1 µM [rising, single point]. `Cc1nc(SCCC(=O)O)c2cc(-c3ccccc3)sc2n1`: the cell number change was -2.56%. The AC50 under setting [2] is 29.1 µM [rising, single point].

`O=C1c2cccc3c(N4CCCCC4)ccc(c23)C(=O)N1c1ccccc1O`: the cell number change was -96.6%. For the same compound, the AC50 under setting [1] was 18.4 µM [falling, partial curve].

`Cc1nn(-c2ccccc2)c(C)c1/C=N/Nc1nc2ccccc2[nH]1`: the cell number change was -65.1%. Besides, the AC50 under setting [1] is 32.6 µM [falling, single point]. Besides, under setting [2], the AC50 was 29.1 µM [falling, partial curve, poor fit]. In the case of `O=S(=O)(Nc1nc2ccccc2nc1NCc1ccco1)c1ccc(Cl)cc1`, the AC50 under setting [2] is 5.8 µM [rising, single point]. `CCCN(CCC)S(=O)(=O)c1ccc(Cl)c([N+](=O)[O-])c1`: the cell number change was -24.3%. Moreover, under setting [2], the AC50 is 5.17 µM [falling, single point]. As for `CCCCC(NC(=O)Cc1c(C)c2cc3c(-c4ccccc4)coc3c(C)c2oc1=O)C(=O)O` (stereo not given), the cell number change is -23.4%. The AC50 under setting [2] was 2.06 µM [rising, partial curve].

In the case of `COC(=O)c1c(NC(=O)C(Cl)Cl)sc2c1C(C(=O)OC)CC2` (stereo not given), the cell number change is -17%. Further, the half-maximal activity concentration (AC50) under setting [2] was 29.1 µM [falling, single point]. With `CCOc1ccc(-c2c(C(=O)N/N=C/c3ccccc3)nnn2-c2nonc2N)cc1`, the cell number change came to 18.4%. Under setting [1], the AC50 was 0.00517 µM [rising, full curve, poor fit]. In addition, the AC50 under setting [2] is 0.00461 µM [rising, full curve, poor fit].

`CC(=O)N1CCOc2ccc(S(=O)(=O)N3CCC(C(=O)Nc4ccc(C)cc4)CC3)cc21`: the cell number change was -25.5%.

In the case of `COCCCNC(=S)Nc1ccc(C)cc1[N+](=O)[O-]`, the cell number change is 15.9%. For the compound `Cc1ccc2nc(-c3cccnc3)cc(C(=O)Nc3ccccc3[N+](=O)[O-])c2c1`, the cell number change is -46.8%. Also, the AC50 under setting [1] was 7.08 µM [falling, partial curve]. For the compound `CCC(C(=O)NCCc1ccccc1OC)n1nc(C)c2c(C)n(-c3ccccc3)nc2c1=O` (stereo not given), the cell number change is -5.32%. For the same compound, the AC50 under setting [1] was 0.0058 µM [rising, full curve, poor fit].

As to `Cc1onc(-c2ccccc2)c1-c1nc2ccccc2c(=O)o1`, the AC50 is 0.82 µM [falling, full curve, poor fit] under setting [1] and 6.51 µM [falling, single point] under setting [2]. In the case of `CC(=O)N1CCOc2ccc(S(=O)(=O)N3CCCC(C)C3)cc21` (stereo not given), the AC50 under setting [2] is 29.1 µM [falling, single point]. Take `CC1CCN(C(=O)Cn2cnc3c2c(=O)n(C)c(=O)n3C)c2ccccc2S1` (stereo not given): the cell number change is 11.1%. Besides, the AC50 under setting [2] was 29.1 µM [falling, single point]. On to `O=C(O)C1CCC(=O)N1Cc1ccc(F)cc1` (stereo not given), for which the cell number change was determined as 20.6%. For the same compound, the AC50 under setting [2] is 29.1 µM [falling, single point]. With `Cc1cccc(-c2nnc3n2N=C(c2ccccc2Br)CS3)c1`, the cell number change is -19.9%. Moreover, the AC50 under setting [2] was 9.2 µM [falling, partial curve]. With `CCC(C(=O)NCCc1ccccc1)c1ccccc1` (stereo not given), the cell number change was determined as 22%. Further, the AC50 under setting [2] is 29.1 µM [rising, single point].

For the compound `CCc1ccc2c(c1)[C@]1(C(=O)N2)[C@@H]2C(=O)N(Cc3ccccc3)C(=O)[C@@H]2[C@@H]2CCCN21`, the cell number change is -0.419%.

On to `CCC(C)(C)NC(=O)C1CCN(S(=O)(=O)c2cccs2)CC1`, for which the cell number change is 22.2%.

`COC(=O)C1=C(C)NC(C)=C(C(=O)OC)C1/C=C/c1ccccc1`: the cell number change was 137%. For the same compound, the AC50 under setting [1] is 29.1 µM [rising, single point]. The AC50 under setting [2] is 29.1 µM [rising, single point]. As for `O=C(NC12CC3CC(CC(C3)C1)C2)N1CCCC(CO)C1` (stereo not given), the cell number change was -58.1%. Besides, the concentration at half-maximal activity (AC50) under setting [1] was 16.4 µM [falling, single point]. `CCc1nnc(NC(=O)COc2ccc3ccccc3c2)s1`: the cell number change is -16.2%. Same read-out and setting: the result for `Cc1ccc(C)c2sc(N)nc12` reads 11.3%.

For the compound `Oc1c(Br)cc(Br)cc1CNc1ccc(F)cc1`, the cell number change was 9.18%. Besides, the AC50 under setting [1] is 2.06 µM [falling, partial curve].

Consider `COc1cc(/C=C2\SC(=S)N(NC(=O)c3ccc(O)cc3)C2=O)ccc1O`, for which the cell number change is -93%. The AC50 under setting [1] is 25.9 µM [falling, partial curve, poor fit]. Moreover, the AC50 under setting [2] is 18.4 µM [falling, partial curve]. With `N#CC1=C(C=Nc2ccccc2O)CCC1`, the cell number change was -46.8%. For the same compound, the AC50 under setting [1] was 23.1 µM [falling, single point]. Also, under setting [2], the AC50 is 3.66 µM [falling, full curve]. Consider `CN1CCN(CC(=O)NC2CCCCC2)CC1`, for which the cell number change was -59.7%. Also, the AC50 under setting [1] was 18.4 µM [falling, partial curve]. Moreover, under setting [2], the AC50 is 29.1 µM [falling, single point]. Consider `CC1Cc2nc(SCC(=O)N3CCN(c4ccccc4)CC3)n(CCc3ccccc3)c(=O)c2S1` (stereo not given), for which the cell number change worked out at 2.02%. Under setting [1], the AC50 was 1.84 µM [rising, single point]. Besides, under setting [2], the half-maximal activity concentration (AC50) was 0.651 µM [rising, single point]. Regarding `COc1ccc(OCc2nnc(SCC(=O)N3c4ccccc4Sc4ccc(Cl)cc43)o2)cc1`, the cell number change is -12%. Further, the AC50 under setting [2] was 25.9 µM [falling, partial curve]. For `COc1ccc(NS(=O)(=O)c2cccc(C(=O)N/N=C(\C)c3cccnc3)c2)cc1`, the cell number change stood at 2.26%. Further, the AC50 under setting [2] is 29.1 µM [falling, single point].

Consider `Cc1ccc(C(C(=O)NCc2ccccc2)N(C(=O)c2csnn2)C2CC2)cc1` (stereo not given), for which the cell number change was determined as 14.1%. For the same compound, under setting [2], the AC50 was 0.13 µM [rising, full curve, poor fit]. As to `CCOC(=O)c1cnc(-n2nc(C)cc2C)[nH]c1=O`, the cell number change was 6.51%. Further, the AC50 under setting [2] was 20.6 µM [rising, single point]. In the case of `Cc1cccc(-c2noc(CNC(=O)COc3ccccc3C)n2)c1`, the cell number change was -20.8%. For the compound `C=CCSc1nc2ccccc2[nH]1`, the cell number change was 2.78%. Regarding `CNC(=O)c1ccccc1F`, the cell number change is -37.7%. The AC50 under setting [1] is 1.64 µM [falling, full curve, poor fit]. Take `CCC(Sc1nc2cc3c(cc2c(=O)n1Cc1ccco1)OCO3)C(=O)Nc1cccc(OC)c1` (stereo not given): the cell number change is -25.6%. The AC50 under setting [2] is 29.1 µM [falling, single point]. On to `Cc1cccc(CSc2nc3ccncc3n2CC(=O)Nc2cc(C)cc(C)c2)c1`, for which the cell number change is 8.28%. For the same compound, the AC50 under setting [2] was 0.116 µM [falling, full curve, poor fit]. With `Cc1cccc(NC(=O)CCCN=C2NS(=O)(=O)c3ccccc32)c1C`, the cell number change is -8.3%. `CCOc1ccc(NC(=O)c2ccc3nccnc3c2)cc1`: the cell number change is 13.7%. Moreover, under setting [1], the AC50 is 0.00411 µM [rising, full curve, poor fit]. Take `O=C(NCCc1ccccc1F)C1CC(=O)N(c2ccccc2)C1` (stereo not given): the cell number change came out at 3.72%. The AC50 under setting [2] is 29.1 µM [rising, single point].

With `COc1cccc(NC(=O)CN(C)C(=O)/C=C/c2cn(Cc3ccccc3)nc2-c2cccnc2)c1`, the cell number change turned out to be 87.6%. Under setting [1], the AC50 is 14.6 µM [rising, partial curve]. As to `O=S(=O)(/C=C/c1ccccc1)N1CCN(Cc2ccccc2)CC1`, the cell number change was -38.7%. For the compound `COC(=O)c1ccnc(SCC(=O)c2ccccc2)c1`, the cell number change was -41.7%. Further, the AC50 under setting [1] was 0.116 µM [falling, full curve, poor fit]. In addition, the AC50 under setting [2] was 0.411 µM [falling, full curve, poor fit]. In the case of `COc1ccc(OC)c(S(=O)(=O)NCCO)c1`, the cell number change came to 1.45%. The AC50 under setting [1] is 0.731 µM [falling, full curve]. Turning to `O=C(c1ccc([N+](=O)[O-])cc1[N+](=O)[O-])n1cnc2ccccc21`, the cell number change worked out at 108%. For the same compound, under setting [1], the AC50 was 29.1 µM [rising, partial curve, poor fit]. As to `CCNC(=O)c1ccc(CSc2ccc(Cl)cc2)cc1`, the cell number change is -0.244%. The AC50 under setting [2] is 20.6 µM [rising, single point].

These data come from PubChem BioAssay AID2685 (National Center for Advancing Translational Sciences (NCATS), 2010).
